From article PMC10254030, “Photoactivatable Heptamethine-Based Carbonic Anhydrase Inhibitors Leading to New Anti-Antibacterial Agents” (International Journal of Molecular Sciences, 2023)

Protein sequences, listed by entry. Tags and fused reporters are not part of them.
UniProt Q9I730, entry or part of it: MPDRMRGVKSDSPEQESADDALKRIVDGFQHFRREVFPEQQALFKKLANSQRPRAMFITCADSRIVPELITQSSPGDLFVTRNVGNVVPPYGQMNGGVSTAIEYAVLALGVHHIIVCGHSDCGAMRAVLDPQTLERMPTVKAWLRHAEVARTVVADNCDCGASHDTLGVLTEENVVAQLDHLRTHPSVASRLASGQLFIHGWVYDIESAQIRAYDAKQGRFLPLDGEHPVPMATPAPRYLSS

Biological target: PsCA1 (Pseudomonas aeruginosa, UniProt Q9I730)
Assay: biochemical
Settings: stopped-flow CO2 hydrase assay, mean from 3 assays
Protocol: The CA isoforms belong to different classes of CA enzymes characterized by different kinetic and structural features to assess isoform selectivity.
An Applied Photophysics stopped-flow instrument was used to assay CA-catalyzed CO2 hydration activity. […] The uncatalyzed rates were determined in the same manner and subtracted from the total observed rates. Stock solutions of the inhibitor (0.1 mM) were prepared in distilled–deionized water, and dilutions up to 0.01 nM were done thereafter with the assay buffer. Inhibitor and enzyme solutions were preincubated together for 15 min at room temperature prior to the assay to allow for the formation of the E–I complex. The inhibition constants were obtained by non-linear least-squares methods using PRISM 3 and the Cheng–Prusoff equation as reported earlier and represent the mean from at least three different determinations. All CA isoforms were recombinant proteins obtained in house, as reported earlier.

Ki: 37 nM
SMILES: CC(=O)Nc1nnc(S(N)(=O)=O)s1 [AAZ, acetazolamide, reference compound]
